According to the supplement of paper PMC12823440, “Inhibitors supercharge kinase turnover through native proteolytic circuits” (Nature, 2025):
The other results are listed elsewhere or left out. The calls rarely recur for the same compound in another form.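 In K562 cells expressing nanoluciferase-fused kinases, luminescence was recorded at 4 h intervals between 2 and 18 h, normalized as percent of control with DMSO at 100% and a positive control at 0%. A significant (2 sigma) signal drop marks a time point as decreased. The authors' rule for a hit is not shown and takes in more than the number of time points.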

Chains of the proteins cited; added tags and fusions are not shown. Lines headed by an entry give the natural chain unless they say otherwise; changes in a name come on top.
UniProt P00519, whole entry: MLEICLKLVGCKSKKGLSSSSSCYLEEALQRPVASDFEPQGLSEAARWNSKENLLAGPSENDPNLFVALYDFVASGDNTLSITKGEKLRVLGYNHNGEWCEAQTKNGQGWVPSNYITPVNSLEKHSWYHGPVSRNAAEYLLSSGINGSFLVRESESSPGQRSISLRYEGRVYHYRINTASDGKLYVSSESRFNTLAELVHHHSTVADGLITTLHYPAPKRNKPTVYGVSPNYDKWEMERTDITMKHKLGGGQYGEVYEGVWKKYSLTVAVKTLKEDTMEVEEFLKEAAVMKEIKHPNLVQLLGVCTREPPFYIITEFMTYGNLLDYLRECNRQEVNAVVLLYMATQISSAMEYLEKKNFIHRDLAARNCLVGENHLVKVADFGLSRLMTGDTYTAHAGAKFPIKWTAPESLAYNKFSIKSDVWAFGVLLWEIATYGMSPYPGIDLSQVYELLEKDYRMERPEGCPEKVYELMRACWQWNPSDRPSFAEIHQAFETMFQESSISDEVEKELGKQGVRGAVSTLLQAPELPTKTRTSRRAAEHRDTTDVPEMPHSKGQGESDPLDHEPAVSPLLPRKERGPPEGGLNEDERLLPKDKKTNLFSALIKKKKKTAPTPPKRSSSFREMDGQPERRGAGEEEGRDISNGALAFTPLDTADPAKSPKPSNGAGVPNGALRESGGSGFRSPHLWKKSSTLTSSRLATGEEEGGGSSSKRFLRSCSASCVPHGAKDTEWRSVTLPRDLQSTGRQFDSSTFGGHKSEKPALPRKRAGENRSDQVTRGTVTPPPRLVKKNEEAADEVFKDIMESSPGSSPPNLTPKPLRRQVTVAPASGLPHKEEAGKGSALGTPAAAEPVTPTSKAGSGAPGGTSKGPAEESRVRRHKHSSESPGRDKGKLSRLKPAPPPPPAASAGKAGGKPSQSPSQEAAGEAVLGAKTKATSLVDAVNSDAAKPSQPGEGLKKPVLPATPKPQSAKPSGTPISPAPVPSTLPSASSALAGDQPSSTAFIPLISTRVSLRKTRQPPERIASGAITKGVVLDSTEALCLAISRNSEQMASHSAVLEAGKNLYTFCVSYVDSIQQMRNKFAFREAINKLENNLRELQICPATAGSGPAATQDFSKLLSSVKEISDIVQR
UniProt P31749: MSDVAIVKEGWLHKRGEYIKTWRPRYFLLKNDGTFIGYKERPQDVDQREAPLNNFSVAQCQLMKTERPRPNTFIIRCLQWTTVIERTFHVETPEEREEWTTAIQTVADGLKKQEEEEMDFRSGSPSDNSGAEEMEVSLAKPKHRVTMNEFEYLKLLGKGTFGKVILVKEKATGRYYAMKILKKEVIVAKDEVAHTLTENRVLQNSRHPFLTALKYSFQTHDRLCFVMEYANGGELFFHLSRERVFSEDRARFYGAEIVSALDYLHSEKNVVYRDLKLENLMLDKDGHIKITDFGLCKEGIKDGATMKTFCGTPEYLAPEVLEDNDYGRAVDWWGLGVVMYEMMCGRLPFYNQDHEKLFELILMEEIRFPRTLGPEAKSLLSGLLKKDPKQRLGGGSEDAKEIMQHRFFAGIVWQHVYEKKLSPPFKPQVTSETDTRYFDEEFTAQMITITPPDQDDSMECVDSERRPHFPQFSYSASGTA
UniProt Q9UM73: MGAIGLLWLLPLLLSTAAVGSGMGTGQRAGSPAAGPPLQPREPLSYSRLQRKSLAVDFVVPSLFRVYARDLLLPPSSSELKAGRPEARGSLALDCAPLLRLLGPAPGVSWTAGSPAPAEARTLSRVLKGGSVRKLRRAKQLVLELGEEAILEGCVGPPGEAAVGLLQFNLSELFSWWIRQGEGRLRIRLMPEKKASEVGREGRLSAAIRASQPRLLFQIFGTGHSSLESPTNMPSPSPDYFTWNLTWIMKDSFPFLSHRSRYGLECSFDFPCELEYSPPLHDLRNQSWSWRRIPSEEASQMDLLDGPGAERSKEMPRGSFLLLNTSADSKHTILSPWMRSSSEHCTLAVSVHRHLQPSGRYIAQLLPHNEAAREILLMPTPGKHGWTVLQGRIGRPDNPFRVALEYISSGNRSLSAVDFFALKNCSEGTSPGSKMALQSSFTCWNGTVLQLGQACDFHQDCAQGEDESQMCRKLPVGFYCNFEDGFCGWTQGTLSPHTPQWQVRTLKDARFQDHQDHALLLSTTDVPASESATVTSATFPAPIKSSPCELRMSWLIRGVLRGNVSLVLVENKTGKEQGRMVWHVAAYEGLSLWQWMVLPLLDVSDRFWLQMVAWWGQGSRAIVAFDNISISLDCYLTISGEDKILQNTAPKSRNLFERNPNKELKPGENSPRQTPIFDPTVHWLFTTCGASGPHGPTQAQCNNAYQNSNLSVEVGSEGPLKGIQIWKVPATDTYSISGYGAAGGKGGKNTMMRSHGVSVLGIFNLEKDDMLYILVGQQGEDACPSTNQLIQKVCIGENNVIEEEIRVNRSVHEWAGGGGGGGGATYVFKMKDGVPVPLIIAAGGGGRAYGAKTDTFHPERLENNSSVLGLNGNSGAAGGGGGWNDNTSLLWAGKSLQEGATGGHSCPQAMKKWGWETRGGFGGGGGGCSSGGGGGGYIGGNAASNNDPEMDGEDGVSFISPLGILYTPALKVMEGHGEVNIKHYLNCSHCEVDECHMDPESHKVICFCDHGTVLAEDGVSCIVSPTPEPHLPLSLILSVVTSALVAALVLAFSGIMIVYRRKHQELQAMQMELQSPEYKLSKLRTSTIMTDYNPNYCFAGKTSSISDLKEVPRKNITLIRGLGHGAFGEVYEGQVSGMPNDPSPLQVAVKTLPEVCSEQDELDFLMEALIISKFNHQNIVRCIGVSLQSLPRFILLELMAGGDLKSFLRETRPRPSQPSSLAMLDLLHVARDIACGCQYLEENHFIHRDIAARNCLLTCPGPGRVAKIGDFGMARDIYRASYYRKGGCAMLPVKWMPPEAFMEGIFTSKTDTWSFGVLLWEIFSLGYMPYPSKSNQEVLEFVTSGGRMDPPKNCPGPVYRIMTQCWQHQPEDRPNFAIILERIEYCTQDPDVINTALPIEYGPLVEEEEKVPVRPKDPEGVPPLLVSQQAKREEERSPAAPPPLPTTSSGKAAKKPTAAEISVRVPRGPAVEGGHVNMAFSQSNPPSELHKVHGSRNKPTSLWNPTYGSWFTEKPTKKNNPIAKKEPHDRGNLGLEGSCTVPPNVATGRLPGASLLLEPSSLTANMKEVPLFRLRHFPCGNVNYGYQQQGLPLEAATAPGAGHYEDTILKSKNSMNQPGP
UniProt O14965: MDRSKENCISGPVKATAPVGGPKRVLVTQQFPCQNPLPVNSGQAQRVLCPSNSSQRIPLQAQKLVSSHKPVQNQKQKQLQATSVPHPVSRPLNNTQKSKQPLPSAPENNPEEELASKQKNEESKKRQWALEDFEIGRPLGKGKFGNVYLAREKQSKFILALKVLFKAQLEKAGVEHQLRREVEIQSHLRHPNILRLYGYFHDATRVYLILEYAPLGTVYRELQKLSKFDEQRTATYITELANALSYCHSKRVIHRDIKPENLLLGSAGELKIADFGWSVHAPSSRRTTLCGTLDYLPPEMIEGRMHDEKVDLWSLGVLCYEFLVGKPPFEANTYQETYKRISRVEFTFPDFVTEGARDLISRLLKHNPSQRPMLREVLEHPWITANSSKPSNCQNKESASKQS
UniProt Q96GD4, whole entry: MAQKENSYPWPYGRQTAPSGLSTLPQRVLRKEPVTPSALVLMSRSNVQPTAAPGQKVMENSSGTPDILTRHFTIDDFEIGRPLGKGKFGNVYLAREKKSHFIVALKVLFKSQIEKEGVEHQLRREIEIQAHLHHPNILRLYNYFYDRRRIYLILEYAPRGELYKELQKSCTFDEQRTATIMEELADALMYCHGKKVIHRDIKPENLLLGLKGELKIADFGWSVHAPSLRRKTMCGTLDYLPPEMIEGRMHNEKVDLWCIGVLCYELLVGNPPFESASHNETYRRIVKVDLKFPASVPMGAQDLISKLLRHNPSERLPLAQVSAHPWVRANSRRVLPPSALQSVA
UniProt P51451: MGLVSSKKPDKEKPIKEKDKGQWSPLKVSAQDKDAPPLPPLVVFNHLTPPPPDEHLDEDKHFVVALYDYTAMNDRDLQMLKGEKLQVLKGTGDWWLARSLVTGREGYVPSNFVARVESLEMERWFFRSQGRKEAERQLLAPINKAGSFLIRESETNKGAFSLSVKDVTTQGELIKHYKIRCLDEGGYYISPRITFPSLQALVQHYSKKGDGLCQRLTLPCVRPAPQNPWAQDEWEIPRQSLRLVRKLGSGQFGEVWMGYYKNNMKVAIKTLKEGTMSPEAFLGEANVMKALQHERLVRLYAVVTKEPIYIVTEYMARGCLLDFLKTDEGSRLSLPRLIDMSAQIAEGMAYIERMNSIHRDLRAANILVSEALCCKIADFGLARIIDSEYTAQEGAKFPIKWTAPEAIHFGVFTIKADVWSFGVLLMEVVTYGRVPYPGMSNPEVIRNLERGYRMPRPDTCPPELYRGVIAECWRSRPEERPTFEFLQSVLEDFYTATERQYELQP
UniProt P51813: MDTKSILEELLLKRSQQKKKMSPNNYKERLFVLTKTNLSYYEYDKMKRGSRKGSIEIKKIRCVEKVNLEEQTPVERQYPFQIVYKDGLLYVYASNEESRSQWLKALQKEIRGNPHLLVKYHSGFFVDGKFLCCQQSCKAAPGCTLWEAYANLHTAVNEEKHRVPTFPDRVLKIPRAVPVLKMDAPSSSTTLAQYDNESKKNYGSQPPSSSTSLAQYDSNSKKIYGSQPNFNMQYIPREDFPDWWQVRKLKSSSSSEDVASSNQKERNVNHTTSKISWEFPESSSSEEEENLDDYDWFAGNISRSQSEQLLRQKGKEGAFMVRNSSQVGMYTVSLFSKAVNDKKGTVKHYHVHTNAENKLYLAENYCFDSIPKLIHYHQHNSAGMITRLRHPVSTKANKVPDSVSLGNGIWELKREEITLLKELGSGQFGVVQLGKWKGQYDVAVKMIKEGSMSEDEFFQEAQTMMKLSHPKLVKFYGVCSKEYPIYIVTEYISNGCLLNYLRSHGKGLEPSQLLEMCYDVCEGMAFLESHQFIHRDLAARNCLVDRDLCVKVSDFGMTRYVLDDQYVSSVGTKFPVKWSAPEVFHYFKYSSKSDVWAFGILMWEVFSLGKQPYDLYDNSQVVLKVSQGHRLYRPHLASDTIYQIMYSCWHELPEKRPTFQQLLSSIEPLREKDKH
UniProt P15056, whole entry, looked up: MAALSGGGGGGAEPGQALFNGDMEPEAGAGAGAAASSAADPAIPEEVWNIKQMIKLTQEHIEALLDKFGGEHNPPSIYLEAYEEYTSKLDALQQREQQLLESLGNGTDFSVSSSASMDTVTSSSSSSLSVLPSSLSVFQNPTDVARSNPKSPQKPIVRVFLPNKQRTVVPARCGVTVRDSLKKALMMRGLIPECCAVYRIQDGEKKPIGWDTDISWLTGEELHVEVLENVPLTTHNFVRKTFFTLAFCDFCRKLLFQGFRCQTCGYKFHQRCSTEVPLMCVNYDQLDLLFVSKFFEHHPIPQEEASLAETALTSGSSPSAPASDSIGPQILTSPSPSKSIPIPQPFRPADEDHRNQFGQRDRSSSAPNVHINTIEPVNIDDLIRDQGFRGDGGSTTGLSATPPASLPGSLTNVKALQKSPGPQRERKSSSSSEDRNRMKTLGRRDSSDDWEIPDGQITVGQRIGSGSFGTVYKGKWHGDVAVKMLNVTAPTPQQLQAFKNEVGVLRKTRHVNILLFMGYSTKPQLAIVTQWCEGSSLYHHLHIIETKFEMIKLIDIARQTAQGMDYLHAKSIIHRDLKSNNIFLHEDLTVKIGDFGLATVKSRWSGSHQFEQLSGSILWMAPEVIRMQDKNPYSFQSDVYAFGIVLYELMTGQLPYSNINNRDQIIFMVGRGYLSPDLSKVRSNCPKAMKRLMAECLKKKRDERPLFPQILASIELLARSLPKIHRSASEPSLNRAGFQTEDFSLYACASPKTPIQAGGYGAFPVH
UniProt Q15131: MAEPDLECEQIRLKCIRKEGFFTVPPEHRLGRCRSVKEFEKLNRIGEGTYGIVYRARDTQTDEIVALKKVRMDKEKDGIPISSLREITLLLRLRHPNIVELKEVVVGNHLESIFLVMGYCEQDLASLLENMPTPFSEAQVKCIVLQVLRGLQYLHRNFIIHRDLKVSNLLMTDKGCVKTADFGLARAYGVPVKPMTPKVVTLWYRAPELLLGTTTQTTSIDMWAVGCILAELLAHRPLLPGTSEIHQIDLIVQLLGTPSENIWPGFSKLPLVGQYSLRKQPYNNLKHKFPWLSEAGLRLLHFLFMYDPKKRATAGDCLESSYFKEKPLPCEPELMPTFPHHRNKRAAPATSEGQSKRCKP
UniProt Q00535, whole entry, looked up: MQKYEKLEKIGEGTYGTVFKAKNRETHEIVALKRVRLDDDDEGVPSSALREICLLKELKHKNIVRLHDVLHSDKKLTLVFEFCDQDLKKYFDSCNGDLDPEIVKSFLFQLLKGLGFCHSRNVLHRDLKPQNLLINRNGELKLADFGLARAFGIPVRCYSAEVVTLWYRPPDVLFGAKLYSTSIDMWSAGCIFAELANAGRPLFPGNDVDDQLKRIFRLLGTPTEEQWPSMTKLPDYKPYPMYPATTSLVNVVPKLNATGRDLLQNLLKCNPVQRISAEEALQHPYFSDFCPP

Columns and labels:
Assay in all cases: kinase-Nluc reporter destabilization hit call (1 = scored as downregulated) (binary); higher = compound decreases kinase abundance
Details in all cases: K562; 2-18 h
ABL1 = ABL1 (UniProt P00519)
AKT1 = AKT1 (UniProt P31749)
ALK = ALK (UniProt Q9UM73)
ARAF = ARAF (UniProt P10398)
AURKA = AURKA (UniProt O14965)
AURKB = AURKB (UniProt Q96GD4)
AURKC = AURKC (UniProt Q9UQB9)
BLK = BLK (UniProt P51451)
BMX = BMX (UniProt P51813)
BRAF = BRAF (UniProt P15056)
BRAF_V600E = tested on: BRAF_V600E
BTK = BTK (UniProt Q06187)
CAMK2A = CAMK2A (UniProt Q9UQM7)
CAMK2G = CAMK2G (UniProt Q13555)
CDK10 = CDK10 (UniProt Q15131)
CDK2 = CDK2 (UniProt P24941)
CDK3 = CDK3 (UniProt Q00526)
CDK4 = CDK4 (UniProt P11802)
CDK5 = CDK5 (UniProt Q00535)
CDK6 = CDK6 (UniProt Q00534)

Measured: kinase-Nluc reporter destabilization hit call

Cc1ccc2cc(-c3c(C)ccc(C(=O)c4c(-c5ccccc5)n(C)n(-c5ccccc5)c4=O)c3N)ccc2n1 (2.5 µM)
inactive: ABL1 = 0 | AKT1 = 0 | ALK 0 | ARAF 0 | AURKA 0 | AURKB 0 | AURKC 0 | BLK 0 | BMX 0 | BRAF 0 | BRAF_V600E 0 | BTK 0 | CAMK2A 0 | CAMK2G 0 | CDK10 = 0 | CDK2 = 0 | CDK3 = 0 | CDK4 = 0 | CDK5 = 0 | CDK6 = 0

Oc1cc(O)c2cc(O)c(-c3cc(O)c(O)c(O)c3)[o+]c2c1 [Delphinidin (chloride)] (10 µM)
inactive: ABL1 = 0 | AKT1 = 0 | ALK 0 | ARAF 0 | AURKA 0 | AURKB 0 | AURKC 0 | BLK 0 | BMX 0 | BRAF 0 | BRAF_V600E 0 | BTK 0 | CAMK2A 0 | CAMK2G 0 | CDK10 = 0 | CDK2 = 0 | CDK3 = 0 | CDK4 = 0 | CDK5 = 0 | CDK6 = 0

C[C@@H](c1ccc(-c2ccccc2)c(F)c1)c1cc(NC(=N)N2CCOCC2)on1 [Rimacalib] (10 µM)
inactive: ABL1 = 0 | AKT1 = 0 | ALK 0 | ARAF 0 | AURKA 0 | AURKB 0 | AURKC 0 | BLK 0 | BMX 0 | BRAF 0 | BRAF_V600E 0 | BTK 0 | CAMK2A 0 | CAMK2G 0 | CDK10 = 0 | CDK2 = 0 | CDK3 = 0 | CDK4 = 0 | CDK5 = 0 | CDK6 = 0

O=C(NOCC(O)CO)c1cc(Br)c(F)c(F)c1Nc1ccc(I)cc1F (stereo not given) (2.5 µM)
inactive: ABL1 = 0 | AKT1 = 0 | ALK 0 | ARAF 0 | AURKA 0 | AURKB 0 | AURKC 0 | BLK 0 | BMX 0 | BRAF 0 | BRAF_V600E 0 | BTK 0 | CAMK2A 0 | CAMK2G 0 | CDK10 = 0 | CDK2 = 0 | CDK3 = 0 | CDK4 = 0 | CDK5 = 0 | CDK6 = 0

Cc1cc(CN2CCN(c3c(Br)cnc4nc(-c5ccc(N6CCN(C)CC6)cc5)[nH]c34)CC2)no1 (2.5 µM)
inactive: ABL1 = 0 | AKT1 = 0 | ALK 0 | ARAF 0 | AURKA 0 | AURKB 0 | AURKC 0 | BLK 0 | BMX 0 | BRAF 0 | BRAF_V600E 0 | BTK 0 | CAMK2A 0 | CAMK2G 0 | CDK10 = 0 | CDK2 = 0 | CDK3 = 0 | CDK4 = 0 | CDK5 = 0 | CDK6 = 0

O=C1N[C@@H](Cc2c[nH]c3ccccc23)C(=O)N2CCC[C@@H]12 [Brevianamide F] (10 µM)
inactive: ABL1 = 0 | AKT1 = 0 | ALK 0 | ARAF 0 | AURKA 0 | AURKB 0 | AURKC 0 | BLK 0 | BMX 0 | BRAF 0 | BRAF_V600E 0 | BTK 0 | CAMK2A 0 | CAMK2G 0 | CDK10 = 0 | CDK2 = 0 | CDK3 = 0 | CDK4 = 0 | CDK5 = 0 | CDK6 = 0

CC(C)(C)c1cc(O)ccc1O (10 µM)
inactive: ABL1 = 0 | AKT1 = 0 | ALK 0 | ARAF 0 | AURKA 0 | AURKB 0 | AURKC 0 | BLK 0 | BMX 0 | BRAF 0 | BRAF_V600E 0 | BTK 0 | CAMK2A 0 | CAMK2G 0 | CDK10 = 0 | CDK2 = 0 | CDK3 = 0 | CDK4 = 0 | CDK5 = 0 | CDK6 = 0

CN(C)CCSSCCNC(=O)C1CCN(C(=O)CSc2ccc(Cl)cc2)CC1 (10 µM)
inactive: ABL1 = 0 | AKT1 = 0 | ALK 0 | ARAF 0 | AURKA 0 | AURKB 0 | AURKC 0 | BLK 0 | BMX 0 | BRAF 0 | BRAF_V600E 0 | BTK 0 | CAMK2A 0 | CAMK2G 0 | CDK10 = 0 | CDK2 = 0 | CDK3 = 0 | CDK4 = 0 | CDK5 = 0 | CDK6 = 0

CC(=O)c1c(C)cc2cccc(O)c2c1O [Nepodin] (10 µM)
inactive: ABL1 = 0 | AKT1 = 0 | ALK 0 | ARAF 0 | AURKA 0 | AURKB 0 | AURKC 0 | BLK 0 | BMX 0 | BRAF 0 | BRAF_V600E 0 | BTK 0 | CAMK2A 0 | CAMK2G 0 | CDK10 = 0 | CDK2 = 0 | CDK3 = 0 | CDK4 = 0 | CDK5 = 0 | CDK6 = 0

NS(=O)(=O)c1ccc(-n2nc(C(F)(F)F)cc2-c2ccc(Cl)cc2)cc1 (10 µM)
inactive: ABL1 = 0 | AKT1 = 0 | ALK 0 | ARAF 0 | AURKA 0 | AURKB 0 | AURKC 0 | BLK 0 | BMX 0 | BRAF 0 | BRAF_V600E 0 | BTK 0 | CAMK2A 0 | CAMK2G 0 | CDK10 = 0 | CDK2 = 0 | CDK3 = 0 | CDK4 = 0 | CDK5 = 0 | CDK6 = 0

C=CC(=O)Nc1cc(C)ccc1Nc1nc(Nc2cc(OC)ncc2C)ncc1C(F)(F)F (10 µM)
inactive: ABL1 = 0 | AKT1 = 0 | ALK 0 | ARAF 0 | AURKA 0 | AURKB 0 | AURKC 0 | BLK 0 | BMX 0 | BRAF 0 | BRAF_V600E 0 | BTK 0 | CAMK2A 0 | CAMK2G 0 | CDK10 = 0 | CDK2 = 0 | CDK3 = 0 | CDK4 = 0 | CDK5 = 0 | CDK6 = 0

C=C(CC[C@@H](C(=O)O)[C@H]1[C@H](O)C[C@@]2(C)C3=C(CC[C@]12C)[C@@]1(C)CC[C@H](OC(C)=O)C(C)(C)[C@@H]1CC3)C(C)C [Pachymic acid] (10 µM)
inactive: ABL1 = 0 | AKT1 = 0 | ALK 0 | ARAF 0 | AURKA 0 | AURKB 0 | AURKC 0 | BLK 0 | BMX 0 | BRAF 0 | BRAF_V600E 0 | BTK 0 | CAMK2A 0 | CAMK2G 0 | CDK10 = 0 | CDK2 = 0 | CDK3 = 0 | CDK4 = 0 | CDK5 = 0 | CDK6 = 0

C[C@H](c1ccnc(Nc2nc3ccc(-c4cc(N(C)C)ncn4)cc3[nH]2)c1)N1CCN(C(=O)CC(F)(F)F)CC1 (2.5 µM)
inactive: ABL1 = 0 | AKT1 = 0 | ALK 0 | ARAF 0 | AURKA 0 | AURKB 0 | AURKC 0 | BLK 0 | BMX 0 | BRAF 0 | BRAF_V600E 0 | BTK 0 | CAMK2A 0 | CAMK2G 0 | CDK10 = 0 | CDK2 = 0 | CDK3 = 0 | CDK4 = 0 | CDK5 = 0 | CDK6 = 0

C[C@@]1(c2ncncc2F)NC(=O)c2cc(-c3cn[nH]c3)ccc21 (10 µM)
inactive: ABL1 = 0 | AKT1 = 0 | ALK 0 | ARAF 0 | AURKA 0 | AURKB 0 | AURKC 0 | BLK 0 | BMX 0 | BRAF 0 | BRAF_V600E 0 | BTK 0 | CAMK2A 0 | CAMK2G 0 | CDK10 = 0 | CDK2 = 0 | CDK3 = 0 | CDK4 = 0 | CDK5 = 0 | CDK6 = 0

Nc1ncnc2c1c(-c1cccc(OCc3ccccc3)c1)cn2C1CC(CN2CCC2)C1 (stereo not given) (2.5 µM)
inactive: ABL1 = 0 | AKT1 = 0 | ALK 0 | ARAF 0 | AURKA 0 | AURKB 0 | AURKC 0 | BLK 0 | BMX 0 | BRAF 0 | BRAF_V600E 0 | BTK 0 | CAMK2A 0 | CAMK2G 0 | CDK10 = 0 | CDK2 = 0 | CDK3 = 0 | CDK4 = 0 | CDK5 = 0 | CDK6 = 0

Cc1nc2sccn2c(=O)c1CCN1CCC(=C(c2ccccc2)c2ccc(F)cc2)CC1 (10 µM)
inactive: ABL1 = 0 | AKT1 = 0 | ALK 0 | ARAF 0 | AURKA 0 | AURKB 0 | AURKC 0 | BLK 0 | BMX 0 | BRAF 0 | BRAF_V600E 0 | BTK 0 | CAMK2A 0 | CAMK2G 0 | CDK10 = 0 | CDK2 = 0 | CDK3 = 0 | CDK4 = 0 | CDK5 = 0 | CDK6 = 0

COc1ccc(OC)c(C2C(C#N)=C(N)Oc3n[nH]c(-c4ccc5ccccc5c4)c32)c1 (stereo not given) (10 µM)
inactive: ABL1 = 0 | AKT1 = 0 | ALK 0 | ARAF 0 | AURKA 0 | AURKB 0 | AURKC 0 | BLK 0 | BMX 0 | BRAF 0 | BRAF_V600E 0 | BTK 0 | CAMK2A 0 | CAMK2G 0 | CDK10 = 0 | CDK2 = 0 | CDK3 = 0 | CDK4 = 0 | CDK5 = 0 | CDK6 = 0

O=C(O)CCC(=O)Nc1ccc(Br)cn1 [Bikinin] (10 µM)
inactive: ABL1 = 0 | AKT1 = 0 | ALK 0 | ARAF 0 | AURKA 0 | AURKB 0 | AURKC 0 | BLK 0 | BMX 0 | BRAF 0 | BRAF_V600E 0 | BTK 0 | CAMK2A 0 | CAMK2G 0 | CDK10 = 0 | CDK2 = 0 | CDK3 = 0 | CDK4 = 0 | CDK5 = 0 | CDK6 = 0

Random excerpt: 2 records from the list, in no set order.
Cc1nc2sccn2c(=O)c1CCN1CCC(=C(c2ccccc2)c2ccc(F)cc2)CC1 (10 µM)
inactive: ABL1 = 0 | AKT1 = 0 | ALK 0 | ARAF 0 | AURKA 0 | AURKB 0 | AURKC 0 | BLK 0 | BMX 0 | BRAF 0 | BRAF_V600E 0 | BTK 0 | CAMK2A 0 | CAMK2G 0 | CDK10 = 0 | CDK2 = 0 | CDK3 = 0 | CDK4 = 0 | CDK5 = 0 | CDK6 = 0

COc1ccc(OC)c(C2C(C#N)=C(N)Oc3n[nH]c(-c4ccc5ccccc5c4)c32)c1 (stereo not given) (10 µM)
inactive: ABL1 = 0 | AKT1 = 0 | ALK 0 | ARAF 0 | AURKA 0 | AURKB 0 | AURKC 0 | BLK 0 | BMX 0 | BRAF 0 | BRAF_V600E 0 | BTK 0 | CAMK2A 0 | CAMK2G 0 | CDK10 = 0 | CDK2 = 0 | CDK3 = 0 | CDK4 = 0 | CDK5 = 0 | CDK6 = 0
